The values are deposited in ChEMBL (CHEMBL3988442, “University of Dundee, Small-Polar-MMV Screening Library” (2021)).

The chains behind the UniProt entries cited, without tags or fusion partners.
UniProt E9BF75, entry or part of it: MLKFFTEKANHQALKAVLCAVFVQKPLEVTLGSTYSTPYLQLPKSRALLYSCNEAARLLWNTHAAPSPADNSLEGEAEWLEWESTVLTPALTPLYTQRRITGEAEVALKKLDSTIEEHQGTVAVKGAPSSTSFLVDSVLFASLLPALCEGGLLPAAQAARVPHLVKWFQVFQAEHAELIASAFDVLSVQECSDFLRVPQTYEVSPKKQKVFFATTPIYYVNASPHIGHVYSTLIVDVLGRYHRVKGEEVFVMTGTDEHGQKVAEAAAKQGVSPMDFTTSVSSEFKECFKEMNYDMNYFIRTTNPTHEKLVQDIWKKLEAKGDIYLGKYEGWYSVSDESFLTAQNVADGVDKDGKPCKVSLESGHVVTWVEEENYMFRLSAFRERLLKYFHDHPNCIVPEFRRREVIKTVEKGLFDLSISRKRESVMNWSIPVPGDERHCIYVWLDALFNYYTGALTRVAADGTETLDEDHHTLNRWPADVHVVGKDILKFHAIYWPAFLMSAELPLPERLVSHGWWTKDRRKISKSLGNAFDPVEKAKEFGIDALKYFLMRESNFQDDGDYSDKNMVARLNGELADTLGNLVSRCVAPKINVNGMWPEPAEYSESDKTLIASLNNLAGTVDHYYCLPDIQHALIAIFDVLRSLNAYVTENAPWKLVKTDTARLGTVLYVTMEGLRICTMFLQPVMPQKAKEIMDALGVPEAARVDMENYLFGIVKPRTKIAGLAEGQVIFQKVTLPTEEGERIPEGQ

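Primary screen of methionyl-tRNA synthetase; the read-out is not stated. Target: Methionyl-tRNA synthetase (putative), Leishmania donovani (UniProt E9BF75). The test concentration is not given. The values are filed as inhibition. Of about 68,000 compounds tested this way, about 24 (0.035%) reached 50% or more in at least one test.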

Results are percentages, as filed. The controls that fix the scale are not given in the record; negative values are as filed. The compounds are a random part of those screened.

O=C(Cc1ccccn1)N1CCN(C(=O)CC2CCCCC2)CC1 gave 1.105%. CCc1nc2c(c(N(C)Cc3nncn3CCOC)n1)CCNCC2 gave 5.108%. For N#Cc1cccc(CN2CC[C@@H]3[C@@H]2CC(=O)N3Cc2ccncc2)c1 the result was 7.96%. O=C(NCc1ccccc1F)NC1CCCN(c2ncccn2)C1 (stereo not drawn) read 2.089%. CC(C)N1[C@@H](C(=O)NCCN(C)C)C[C@H]2CN(c3ncccn3)C[C@H]21 gave 12.41%.

With Cc1occc1C(=O)N1CC[C@H]2C[C@@H](c3nnc(C4CC4)o3)O[C@@H]2C1 the screen gave 12.92%. CC(C)(C)OC(=O)N[C@@H]1C[C@@H](O)CN(C(=O)c2ccc(F)cc2)C[C@H]1O read 5.851%. CN(C)Cc1nnc(C2CCCN(c3ncccc3F)C2)n1C (stereo not drawn) read 2.01%. OCC1CCN(c2ccc(NCc3ccsc3)nc2)CC1 gave 11.17%. With CSc1ccc(C(=O)C2CCCN(C(=O)CCCn3cncn3)C2)cc1 (stereo not drawn) the screen gave 17.14%.

Result for Cc1cnc(N2CCOC3(CCCN(C(=O)C(C)C)C3)C2)nc1 (stereo not drawn) was 7.317%. COc1ccc2nc(C3CC3)cc(C(=O)NCCc3nnc[nH]3)c2c1 gave 11.03%. For CN1CCN(C(=O)NCCc2ccc(F)cc2)[C@H]2CS(=O)(=O)C[C@H]21 the result was 9.487%. Cc1ccccc1CN(CCN(C)C)Cc1ccc(C(=O)O)cc1 read 1.535%. CCOC(=O)c1sc2ccsc2c1CNC(=O)C(C)(C)C#N read 13.02%.

With c1ccc(C(CC2CN(Cc3ncc[nH]3)CCO2)c2ccccc2)cc1 (stereo not drawn) the screen gave 4.439%. CN(C)C(=O)CN1C[C@@H]2CC[C@H](C1)N(Cc1ccc3nsnc3c1)C2 gave 3.546%. With CN1CCN(Cc2ccccc2CNC(=O)c2ccc(Br)cc2F)CC1 the screen gave 10.78%. OC(COCc1cccs1)Cn1cc(Cl)cn1 (stereo not drawn) gave 2.158%. CCCc1n[nH]c(C2CN(C(=O)c3cc(C4CC4)on3)CCO2)n1 (stereo not drawn) read 9.051%.

NCCn1cc(C(=O)NCc2ccccc2-n2cccn2)nn1 gave 13.73%. With CN(C)c1nccc(C2CN(c3ccccc3)CCO2)n1 (stereo not drawn) the screen gave 18.55%. For CN1CCN(Cc2noc(-c3cc(-c4ccc(F)cc4)n[nH]3)n2)CC1 the result was 6.774%. For O=C(c1ccc2c(c1)COC2)N1CCCC(n2cncn2)C1 (stereo not drawn) the result was 11.45%. Cc1cc(Cc2ccccc2)cc(C2CCCNC2)n1 (stereo not drawn) gave 13.65%.

Cc1ccc(NC(=O)c2ccc(CC3CC(=O)NC3=O)cc2)cc1O (stereo not drawn) read 15.72%. Result for c1cncc(O[C@@H]2CC[C@H]3[C@H]2OCCN3C2CCCC2)c1 was 16.25%. For CCNC(=O)CN(CC)Cc1nc2c(F)cccc2n1CC the result was 8.011%. COCCOCCCNC(=O)c1cc(Cl)cc2cccnc12 read 12.24%. With COc1ccc2c(c1)ncn2C[C@]1(O)CCCN2CCCC[C@@H]21 the screen gave 16.45%.

For O=C(Nc1ccccc1)N1C[C@H]2CC[C@@H]1CN(Cc1ccccc1)C2 the result was 5.333%. With COC(=O)c1ccc(OC)c(Cn2cc(N)cn2)c1 the screen gave -12.13%. CCCc1cc(C(=O)N(C)Cc2cnn(-c3cccc(OC)c3)c2)[nH]n1 gave 19.5%. CCOC(=O)NC(CNC(=O)c1cn(C)cn1)CC(C)C (stereo not drawn) gave 9.964%. COc1ccc(OCCNC(=O)c2ccc3c(=O)[nH][nH]c(=O)c3c2)cc1 read 8.163%.

With O=c1[nH]c(-c2ccncc2)nc2c1CCN(S(=O)(=O)N1CCCC1)C2 the screen gave 8.873%. Result for COCc1noc(Cn2ccc3ccccc3c2=O)n1 was 6.863%. With CC(=O)c1cccc(NC(=O)Cn2cc(I)cn2)c1 the screen gave 10.56%. Result for Cc1nc(CN(C)S(=O)(=O)c2ccccc2Br)no1 was 7.666%. CCC(C)NC(=O)c1cccc(CNCc2csc(C(C)C)n2)c1 (stereo not drawn) gave 7.784%.

Cn1c(C(F)(F)F)nn(CCNC(=O)c2ccccn2)c1=O read 8.741%. For CCOc1ccc(N(C)Cc2nnc(C)o2)cc1 the result was 5.398%. Result for NC(=O)c1csc(N2CCN(C3CCc4ccccc4C3)CC2)n1 (stereo not drawn) was 15.74%. Result for CN1CC2(CCCN(c3cc(N4CCCCC4)ncn3)C2)OC1=O (stereo not drawn) was 9.537%. O=C(NS(=O)(=O)c1ccc2c(c1)OCCO2)c1ccc(Br)cc1F gave 2.778%.

CCOCCC1(CNC(=O)c2ccncc2)CCC1 read 4.178%. With CCn1cc(-c2cc(-c3cc(CN(C)C)cs3)nc(N)c2C#N)c(C)n1 the screen gave 20.62%. For COCCNC(=O)NCCc1ccn(-c2ccccc2)n1 the result was 17.36%. With CC(=O)N1CCCN(C(C(=O)O)c2ccc(C)cc2C)CC1 (stereo not drawn) the screen gave 9.254%. Result for Cc1nn(C)c(C)c1C1CCCN1Cc1nc(N)c2ccccc2n1 (stereo not drawn) was 16.39%.

For c1cc(-c2nnn3c2COC(CNCc2nccs2)C3)ccn1 (stereo not drawn) the result was 8.125%. For N#CCCCn1nnc(C2(NC(=O)c3ccccc3)CCCC2)n1 the result was 9.971%. For CC1CCCN1Cc1ccccc1-c1nc(C(C)(C)C)cc(=O)[nH]1 (stereo not drawn) the result was -2.638%. O=C(c1nc2c(s1)CCCN2CC1CC1)N1CCOCC1 gave 15.79%. Result for CN(C)C(=O)C1CCC2(CCN(C(=O)Nc3cccc(F)c3)CC2)O1 (stereo not drawn) was 9.384%.

With N#Cc1cccc(N2CCC3(CCC(=O)N(CC4CCCO4)C3)CC2)n1 (stereo not drawn) the screen gave -4.902%. COc1ccc(C)cc1CC(=O)N1CC[C@@]2(CCCO2)[C@@H](O)C1 read 13.88%. Result for O=C(Cc1ccc(S(=O)(=O)C(F)F)cc1)N1CCCC1 was 9.42%.

4 of the entries, repeated:

Result for O=C(Cc1ccccn1)N1CCN(C(=O)CC2CCCCC2)CC1 was 1.105%.
Result for CN(C)c1nccc(C2CN(c3ccccc3)CCO2)n1 (stereo not drawn) was 18.55%.
Result for O=C(Nc1ccccc1)N1C[C@H]2CC[C@@H]1CN(Cc1ccccc1)C2 was 5.333%.
Result for CC(=O)N1CCCN(C(C(=O)O)c2ccc(C)cc2C)CC1 (stereo not drawn) was 9.254%.